The experiment has as its target T1, murine PiC2 (SLC25A3), mitochondrial phosphate carrier / Cu+ transporter (mouse (endogenous in primary myoblasts)) (UniProt Q8VEM8).
T1 sequence: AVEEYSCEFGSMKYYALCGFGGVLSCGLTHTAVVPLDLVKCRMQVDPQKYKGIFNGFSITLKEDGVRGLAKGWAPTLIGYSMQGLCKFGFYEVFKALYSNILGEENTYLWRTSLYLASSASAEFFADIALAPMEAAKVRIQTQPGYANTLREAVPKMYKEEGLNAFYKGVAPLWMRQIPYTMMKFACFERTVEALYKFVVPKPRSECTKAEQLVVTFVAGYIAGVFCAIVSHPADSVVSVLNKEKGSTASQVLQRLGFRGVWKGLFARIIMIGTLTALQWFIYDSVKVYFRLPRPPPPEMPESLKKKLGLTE
In words: co-IP; extracts of proliferating and differentiating primary myoblasts grown with or without CuSO4; IP lysis buffer (50 mM Tris-HCl pH 7.5, 150 mM NaCl, 1% Nonidet P-40, 0.5% sodium deoxycholate); anti-PiC2 or anti-COX1 antibody, 4°C 2 h, protein A/G magnetic beads overnight; western blot. (In general: Immunoblotting shows a protein as a band on a membrane.)

Results are given in words; binding and its absence hold for the method and conditions named. Binding seen in cells or lysates may run through a third protein. Binding can be weak; no strength is given.

Consider “Sco1 (mouse (endogenous in primary myoblasts))”, for which the binding entry was “binds”.

The values are drawn from paper PMC9682256.
